Record: PubChem BioAssay AID1224826 (NIAID, 2016)
This is a random part of about 17,000 deposited reagents. About 1,110 of them (6.6%) were called active. 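Active means lowered or raised reporter signal; replicate intensities are raw and not normalised per plate.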 Not all columns of the deposit are shown.

Test: 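Knock-downs that raise or lower Tnf reporter signal after endotoxin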 (primary screen)
Cells: RAW264.7 G9 macrophages from mouse bearing reporters for p65 (GFP) and the Tnf promoter (mCherry)
Reagents: siRNA pool against mouse genes, 100 nM
Time to read-out: 16 h of LPS stimulation, after 2 days of siRNA transfection
Conditions: bacterial lipopolysaccharide (Salmonella minnesota R595), 10 ng/ml
Measurement: 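Imaged Tnf reporter mCherry in nuclei, minus background, normalised per plate to the median and expressed as robust z-scores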
Reading the numbers: Tnf reporter robust z-score: higher = stronger Tnf promoter reporter signal after LPS
Rule for the call: 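a well counts as active at a score of -1.3 or below (Tlr4 knock-down control median) or above 3 (raised signal); controls and wells holding fewer than 50 cells are excluded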
Calls: active = Tnf reporter clearly lowered or raised; inactive = no clear change in Tnf reporter

With Arih1, what does the deposit list?
Tnf reporter robust z-score: 0.87; fewer than 50 cells in well: enough cells in well; Outcome: inactive

For Atg14, how do the results read?
Tnf reporter robust z-score: -0.81; fewer than 50 cells in well: enough cells in well; Outcome: inactive

Which result is listed for Chi3l1?
Tnf reporter robust z-score: 1.03; fewer than 50 cells in well: enough cells in well; Outcome: inactive

With Fam114a1, how do the results read?
Tnf reporter robust z-score: -0.06; fewer than 50 cells in well: enough cells in well; Outcome: inactive

How did the screen score Cysrt1?
fewer than 50 cells in well: fewer than 50 cells per well; well left out of calls; Outcome: inactive

Just “Tnf reporter robust z-score” (2 entries from above):
Chi3l1 = 1.03
Fam114a1 = -0.06

Next reagents:
Which result is listed for Gtf3c2?
Tnf reporter robust z-score: -0.48; fewer than 50 cells in well: enough cells in well; Outcome: inactive

With Cept1, what was measured?
Tnf reporter robust z-score: 1.35; fewer than 50 cells in well: enough cells in well; Outcome: inactive

For Dtx2, what was measured?
Tnf reporter robust z-score: -0.71; fewer than 50 cells in well: enough cells in well; Outcome: inactive

With Cd55, what was measured?
Tnf reporter robust z-score: 1.47; fewer than 50 cells in well: enough cells in well; Outcome: inactive

With Ggcx, how do the results read?
Tnf reporter robust z-score: 0.31; fewer than 50 cells in well: enough cells in well; Outcome: inactive

With Pitpnm1, what does the deposit list?
Tnf reporter robust z-score: 1.44; fewer than 50 cells in well: enough cells in well; Outcome: inactive

With 5031434C07Rik, what was measured?
fewer than 50 cells in well: fewer than 50 cells per well; well left out of calls; Outcome: inactive

With Siva1, what does the deposit list?
Tnf reporter robust z-score: -0.49; fewer than 50 cells in well: enough cells in well; Outcome: inactive

How did the screen score Defb20?
Tnf reporter robust z-score: 1.13; fewer than 50 cells in well: enough cells in well; Outcome: inactive
